Assay results published in publication PMC11193767.

By UniProt entry, the sequences of proteins in these tests, tags left out.
UniProt Q8IWT6: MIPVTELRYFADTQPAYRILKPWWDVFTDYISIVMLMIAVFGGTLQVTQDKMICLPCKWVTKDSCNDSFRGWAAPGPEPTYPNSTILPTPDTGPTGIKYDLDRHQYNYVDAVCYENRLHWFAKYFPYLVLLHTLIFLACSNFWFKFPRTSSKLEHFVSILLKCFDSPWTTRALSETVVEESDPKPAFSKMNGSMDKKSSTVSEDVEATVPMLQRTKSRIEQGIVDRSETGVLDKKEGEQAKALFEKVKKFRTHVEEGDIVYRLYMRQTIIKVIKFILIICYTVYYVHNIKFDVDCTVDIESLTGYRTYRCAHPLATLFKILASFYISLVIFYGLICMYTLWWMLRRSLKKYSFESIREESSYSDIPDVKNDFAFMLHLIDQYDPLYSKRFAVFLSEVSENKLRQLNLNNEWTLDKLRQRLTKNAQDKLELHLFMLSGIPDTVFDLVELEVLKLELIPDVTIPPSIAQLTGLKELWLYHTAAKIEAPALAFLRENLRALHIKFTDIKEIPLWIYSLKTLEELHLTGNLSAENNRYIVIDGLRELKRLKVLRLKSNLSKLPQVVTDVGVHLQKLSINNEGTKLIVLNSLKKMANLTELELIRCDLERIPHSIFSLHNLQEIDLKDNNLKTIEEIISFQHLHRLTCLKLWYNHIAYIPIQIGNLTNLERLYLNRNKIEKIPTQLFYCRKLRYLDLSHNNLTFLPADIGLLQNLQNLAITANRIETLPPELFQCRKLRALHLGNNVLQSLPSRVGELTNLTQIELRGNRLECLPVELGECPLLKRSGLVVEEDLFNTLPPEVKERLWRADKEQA

B1: Pleckstrin homology domain-containing family a member 5 (protein, UniProt Q9HAU0-6 1-1282)
chain: MAADLNLEWISLPRSWTYGITRGGRVFFINEEAKSTTWLHPVTGEAVVTGHRRQSTDLPTGWEEAYTFEGARYYINHNERKVTCKHPVTGQPSQDNCIFVVNEQTVATMTSEEKKERPISMINEASNYNVTSDYAVHPMSPVGRTSRASKKVHNFGKRSNSIKRNPNAPVVRRGWLYKQDSTGMKLWKKRWFVLSDLCLFYYRDEKEEGILGSILLPSFQIALLTSEDHINRKYAFKAAHPNMRTYYFCTDTGKEMELWMKAMLDAALVQTEPVKRITFNFRVDKITSENAPTKETNNIPNHRVLIKPEIQNNQKNKEMSKIEEKKALEAEKYGFQKDGQDRPLTKINSVKLNSLPSEYESGSACPAQTVHYRPINLSSSENKIVNVSLADLRGGNRPNTGPLYTEADRVIQRTNSMQQLEQWIKIQKGRGHEEETRGVISYQTLPRNMPSHRAQIMARYPEGYRTLPRNSKTRPESICSVTPSTHDKTLGPGAEEKRRSMRDDTMWQLYEWQQRQFYNKQSTLPRHSTLSSPKTMVNISDQTMHSIPTSPSHGSIAAYQGYSPQRTYRSEVSSPIQRGDVTIDRRHRAHHPKHVYVPDRRSVPAGLTLQSVSPQSLQGKTPEELTLLLIKLRRQQAELSSIREHTLAQLMQLKLEAHSPKNEILSHHLQRNTIYLDHQMKENEPIITMVHTMIENSALRPQLYQQFLRQKSKISLYCLSQDEGRGTLYKYRPEEVDIDAKLSRLCEQDKVVHALEEKLQQLHKEKYTLEQALLSASQEIEMHADNPAAIQTVVLQRDDLQNGLLSTCRELSRATAELERAWREYDKLEYDVTVTRNQMQEQLDHLGEVQTESAGIQRAQIQKELWRIQDVMEGLSKHKQQRGTTEIGMIGSKPFSTVKYKNEEEEVVPPRPPLPRSYDFTEQPPIIPPLPSDSSSLLCYSRGPVHLPEEKKMYQVQGYPRNGSHCGPDYRLYKSEPELTTVAEVDESNGEEKSEPVSEIETSVVKGSHFPVGVVPPRAKSPTPESSTIASYVTLRKTKKMMDLRTERPRSAVEQLCLAESTRPRMTVEEQMERIRRHQQACLREKKKGLNVIGASDQSPLQSPSNLRDNPFRTTQTRRRDDKELDTAIRENDVKPDHETPATEIVQLKETEPQNVDFSKELKKTENISYEMLFEPEPNGVNSVEMMDKERNKDKMPEDVTFSPQDETQTANHKPEEHPEENTKNSVDEQEETVISYESTPEVSRGNQTMAVKSLSPSPESSASPVPSTQPQLTEGSHFMCV
B2: Protein numb homolog (protein, UniProt P49757-1 1-651)
chain: MNKLRQSFRRKKDVYVPEASRPHQWQTDEEGVRTGKCSFPVKYLGHVEVDESRGMHICEDAVKRLKAERKFFKGFFGKTGKKAVKAVLWVSADGLRVVDEKTKDLIVDQTIEKVSFCAPDRNFDRAFSYICRDGTTRRWICHCFMAVKDTGERLSHAVGCAFAACLERKQKREKECGVTATFDASRTTFTREGSFRVTTATEQAEREEIMKQMQDAKKAETDKIVVGSSVAPGNTAPSPSSPTSPTSDATTSLEMNNPHAIPRRHAPIEQLARQGSFRGFPALSQKMSPFKRQLSLRINELPSTMQRKTDFPIKNAVPEVEGEAESISSLCSQITNAFSTPEDPFSSAPMTKPVTVVAPQSPTFQANGTDSAFHVLAKPAHTALAPVAMPVRETNPWAHAPDAANKEIAATCSGTEWGQSSGAASPGLFQAGHRRTPSEADRWLEEVSKSVRAQQPQASAAPLQPVLQPPPPTAISQPASPFQGNAFLTSQPVPVGVVPALQPAFVPAQSYPVANGMPYPAPNVPVVGITPSQMVANVFGTAGHPQAAHPHQSPSLVRQQTFPHYEASSATTSPFFKPPAQHLNGSAAFNGVDDGRLASADRHTEVPTGTCPVDPFEAQWAALENKSKQRTNPSPTNPFSSDLQKTFEIEL
B3: Occludin (protein, UniProt Q16625-1 1-522)
chain: MSSRPLESPPPYRPDEFKPNHYAPSNDIYGGEMHVRPMLSQPAYSFYPEDEILHFYKWTSPPGVIRILSMLIIVMCIAIFACVASTLAWDRGYGTSLLGGSVGYPYGGSGFGSYGSGYGYGYGYGYGYGGYTDPRAAKGFMLAMAAFCFIAALVIFVTSVIRSEMSRTRRYYLSVIIVSAILGIMVFIATIVYIMGVNPTAQSSGSLYGSQIYALCNQFYTPAATGLYVDQYLYHYCVVDPQEAIAIVLGFMIIVAFALIIFFAVKTRRKMDRYDKSNILWDKEHIYDEQPPNVEEWVKNVSAGTQDVPSPPSDYVERVDSPMAYSSNGKVNDKRFYPESSYKSTPVPEVVQELPLTSPVDDFRQPRYSSGGNFETPSKRAPAKGRAGRSKRTEQDHYETDYTTGGESCDELEEDWIREYPPITSDQQRQLYKRNFDTGLQEYKSLQSELDEINKELSRLDKELDDYREESEEYMAAADEYNRLKQVKGSADYKSKKNHCKQLKSKLSHIKKMVGDYDRQKT
B4: Nucleoporin NDC1 (protein, UniProt Q9BTX1-1 1-674)
chain: MATAVSRPCAGRSRDILWRVLGWRIVASIVWSVLFLPICTTVFIIFSRIDLFHPIQWLSDSFSDLYSSYVIFYFLLLSVVIIIISIFNVEFYAVVPSIPCSRLALIGKIIHPQQLMHSFIHAAMGMVMAWCAAVITQGQYSFLVVPCTGTNSFGSPAAQTCLNEYHLFFLLTGAFMGYSYSLLYFVNNMNYLPFPIIQQYKFLRFRRSLLLLVKHSCVESLFLVRNFCILYYFLGYIPKAWISTAMNLHIDEQVHRPLDTVSGLLNLSLLYHVWLCGVFLLTTWYVSWILFKIYATEAHVFPVQPPFAEGSDECLPKVLNSNPPPIIKYLALQDLMLLSQYSPSRRQEVFSLSQPGGHPHNWTAISRECLNLLNGMTQKLILYQEAAATNGRVSSSYPVEPKKLNSPEETAFQTPKSSQMPRPSVPPLVKTSLFSSKLSTPDVVSPFGTPFGSSVMNRMAGIFDVNTCYGSPQSPQLIRRGPRLWTSASDQQMTEFSNPSPSTSISAEGKTMRQPSVIYSWIQNKREQIKNFLSKRVLIMYFFSKHPEASIQAVFSDAQMHIWALEGLSHLVAASFTEDRFGVVQTTLPAILNTLLTLQEAVDKYFKLPHASSKPPRISGSLVDTSYKTLRFAFRASLKTAIYRITTTFGEHLNAVQASAEHQKRLQQFLEFKE
B5: Sterol-4-alpha-carboxylate 3-dehydrogenase, decarboxylating (protein, UniProt Q15738 1-373)
chain: MEPAVSEPMRDQVARTHLTEDTPKVNADIEKVNQNQAKRCTVIGGSGFLGQHMVEQLLARGYAVNVFDIQQGFDNPQVRFFLGDLCSRQDLYPALKGVNTVFHCASPPPSSNNKELFYRVNYIGTKNVIETCKEAGVQKLILTSSASVIFEGVDIKNGTEDLPYAMKPIDYYTETKILQERAVLGANDPEKNFLTTAIRPHGIFGPRDPQLVPILIEAARNGKMKFVIGNGKNLVDFTFVENVVHGHILAAEQLSRDSTLGGKAFHITNDEPIPFWTFLSRILTGLNYEAPKYHIPYWVAYYLALLLSLLVMVISPVIQLQPTFTPMRVALAGTFHYYSCERAKKAMGYQPLVTMDDAMERTVQSFRHLRRVK
B6: Numb-like protein (protein, UniProt Q9Y6R0 1-609)
chain: MSRSAAASGGPRRPERHLPPAPCGAPGPPETCRTEPDGAGTMNKLRQSLRRRKPAYVPEASRPHQWQADEDAVRKGTCSFPVRYLGHVEVEESRGMHVCEDAVKKLKAMGRKSVKSVLWVSADGLRVVDDKTKDLLVDQTIEKVSFCAPDRNLDKAFSYICRDGTTRRWICHCFLALKDSGERLSHAVGCAFAACLERKQRREKECGVTAAFDASRTSFAREGSFRLSGGGRPAEREAPDKKKAEAAAAPTVAPGPAQPGHVSPTPATTSPGEKGEAGTPVAAGTTAAAIPRRHAPLEQLVRQGSFRGFPALSQKNSPFKRQLSLRLNELPSTLQRRTDFQVKGTVPEMEPPGAGDSDSINALCTQISSSFASAGAPAPGPPPATTGTSAWGEPSVPPAAAFQPGHKRTPSEAERWLEEVSQVAKAQQQQQQQQQQQQQQQQQQQQAASVAPVPTMPPALQPFPAPVGPFDAAPAQVAVFLPPPHMQPPFVPAYPGLGYPPMPRVPVVGITPSQMVANAFCSAAQLQPQPATLLGKAGAFPPPAIPSAPGSQARPRPNGAPWPPEPAPAPAPELDPFEAQWAALEGKATVEKPSNPFSGDLQKTFEIEL
B7: Phosphatase and actin regulator 4 (protein, UniProt Q8IZ21-2 1-712)
chain: MGQADVSRPVNPDAVEEADQPTTEPGMVLDSVEAGDTTPPTKRKSKFSGFGKIFKPWKWRKKKSSDKFKETSEVLERKISMRKPREELVKRGVLLEDPEQGGEDPGKPSDAMLKNGHTTPIGNARSSSPVQVEEEPVRLASLRKAIPEEDLKKRLGSTGSQPNSEAESVPENVPKPPLLPPKRPLSSSHEASEGQAKDATSSGGTARFIISTSITTAPAATTAATSLAKTVNLSVTPSPAPRTLPAAPASTNTTATPSLTHMVPAKQPPIPPPKPAHRNSNPVIAELSQAINSGTLLSKPSPPLPPKRGIPSTSVPTLESAAAITTKTPSDEREKSTCSMGSELLPMISPRSPSPPLPTHIPPEPPRTPPFPAKTFQVVPEIEFPPSLDLHQEIPQQEDQKKEVPKRILDQNFGEPHIPSRLPPLPLHIRIQQALTSPLPMTPILEGSHRAHSLLFENSDSFSEDSSTLGRTRSLPITIEMLKVPDDEEEEEQTCPSTFSEEMTPTSVIPKLPQCLREEEEKESDSDSEGPIQYRDEEDEDESYQSALANKVKRKDTLAMKLNHRPSEPELNLNSWPCKSKEEWNEIRHQIGNTLIRRLSQRPTPEELEQRNILQPKNEADRQAEKREIKRRLTRKLSQRPTVAELLARKILRFNEYVEVTDAQDYDRRADKPWTKLTPADKAAIRKELNEFKSSEMEVHEESKHFTRYHRP
B8: Oxysterol-binding protein-related protein 8 (protein, UniProt Q9BZF1-1 1-889)
chain: MEGGLADGEPDRTSLLGDSKDVLGPSTVVANSDESQLLTPGKMSQRQGKEAYPTPTKDLHQPSLSPASPHSQGFERGKEDISQNKDESSLSMSKSKSESKLYNGSEKDSSTSSKLTKKESLKVQKKNYREEKKRATKELLSTITDPSVIVMADWLKIRGTLKSWTKLWCVLKPGVLLIYKTQKNGQWVGTVLLNACEIIERPSKKDGFCFKLFHPLEQSIWAVKGPKGEAVGSITQPLPSSYLIIRATSESDGRCWMDALELALKCSSLLKRTMIREGKEHDLSVSSDSTHVTFYGLLRANNLHSGDNFQLNDSEIERQHFKDQDMYSDKSDKENDQEHDESDNEVMGKSEESDTDTSERQDDSYIEPEPVEPLKETTYTEQSHEELGEAGEASQTETVSEENKSLIWTLLKQVRPGMDLSKVVLPTFILEPRSFLDKLSDYYYHADFLSEAALEENPYFRLKKVVKWYLSGFYKKPKGLKKPYNPILGETFRCLWIHPRTNSKTFYIAEQVSHHPPISAFYVSNRKDGFCLSGSILAKSKFYGNSLSAILEGEARLTFLNRGEDYVMTMPYAHCKGILYGTMTLELGGTVNITCQKTGYSAILEFKLKPFLGSSDCVNQISGKLKLGKEVLATLEGHWDSEVFITDKKTDNSEVFWNPTPDIKQWRLIRHTVKFEEQGDFESEKLWQRVTRAINAKDQTEATQEKYVLEEAQRQAARDRKTKNEEWSCKLFELDPLTGEWHYKFADTRPWDPLNDMIQFEKDGVIQTKVKHRTPMVSVPKMKHKPTRQQKKVAKGYSSPEPDIQDSSGSEAQSVKPSTRRKKGIELGDIQSSIESIKQTQEEIKRNIMALRNHLVSSTPATDYFLQQKDYFIIFLLILLQVIINFMFK

Target: LRRC8A-BirA*-HA fusion protein (human) (UniProt Q8IWT6)
Test: proximity labelling; BioID: HEK293 cells stably expressing LRRC8A-BirA*-HA (two clones), 50 uM biotin 24 h, RIPA lysis, streptavidin bead pull-down of biotinylated proteins, TMT labelling and LC-MS/MS; hits: FDR <= 0.05 and fold change >= 2 against the no-biotin control

binding, binds:
B1, B2, B3, B4, B5, B6, B7, B8

No constants are given. Whether binding was seen depends on the method and setting. In cells and extracts the contact can be indirect. Here binding means that the protein was enriched with, or labelled near, the bait; the list need not be complete.
